Hit rate of the full screen: of about 320,000 compounds, about 620 (0.19%) were called active. Inconclusive results, whose numbers are uncertain, are shown with a selection of clear calls. No stated cut-off is given here; in the data, active means activation above about 80%; inconclusive means between about 30% and that limit; inactive means weaker than that.
Each compound was assayed against Transient receptor potential cation channel subfamily V member 1 (Homo sapiens) (UniProt Q8NER1) (assay: HTS Assay for Compounds that Act as Agonists of the Vanilloid Receptor 1). Conditions: TRPV1-expressing cells, Fluo-8 calcium influx, agonist mode; at 8.33 µM, hits give high values.
Method in brief: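 Cells expressing TRPV1 were dye-loaded with Fluo-8 and read kinetically: 10 s baseline, 3 min after compound (agonist portion), then 2 min after EC20 capsaicin (allosteric enhancer portion). Calcium-bound dye fluorescence at 480/520 nm.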
Further: 0% is about no effect.

The chains behind the UniProt entries cited, without tags or fusion partners.
UniProt Q8NER1, whole entry, looked up: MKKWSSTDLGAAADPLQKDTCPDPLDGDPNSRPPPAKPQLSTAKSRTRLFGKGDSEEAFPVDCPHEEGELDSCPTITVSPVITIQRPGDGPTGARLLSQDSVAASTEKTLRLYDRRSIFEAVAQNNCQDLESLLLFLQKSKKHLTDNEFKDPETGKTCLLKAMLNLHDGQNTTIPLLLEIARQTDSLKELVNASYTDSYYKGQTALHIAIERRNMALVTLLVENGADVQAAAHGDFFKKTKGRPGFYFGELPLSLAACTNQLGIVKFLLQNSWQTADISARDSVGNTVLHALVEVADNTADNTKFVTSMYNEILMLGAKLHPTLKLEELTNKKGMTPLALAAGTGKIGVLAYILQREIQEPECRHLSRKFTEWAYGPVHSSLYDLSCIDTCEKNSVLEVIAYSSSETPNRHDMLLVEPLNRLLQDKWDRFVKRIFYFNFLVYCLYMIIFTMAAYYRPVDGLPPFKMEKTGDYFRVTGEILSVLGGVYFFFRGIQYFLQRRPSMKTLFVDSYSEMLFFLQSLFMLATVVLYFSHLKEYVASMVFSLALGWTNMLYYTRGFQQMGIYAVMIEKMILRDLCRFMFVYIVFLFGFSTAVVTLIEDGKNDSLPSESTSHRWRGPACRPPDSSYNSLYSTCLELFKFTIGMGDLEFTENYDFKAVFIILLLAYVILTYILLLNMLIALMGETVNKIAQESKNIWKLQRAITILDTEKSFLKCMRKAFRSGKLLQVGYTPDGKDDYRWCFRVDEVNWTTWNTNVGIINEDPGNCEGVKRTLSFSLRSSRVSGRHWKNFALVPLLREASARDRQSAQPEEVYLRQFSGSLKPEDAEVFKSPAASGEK

Compound	activation
CC(=O)Nc1nc(-c2ccc3c(c2)OCO3)cs1	inconclusive: 32.3%
CC1(C)Cc2c(c(N3CCOCC3)nc3sc(-c4ccc(C(=O)O)o4)c(N)c23)CO1	inactive: 4.52%
Cc1cnc(C(=O)Nc2ccc(C)c(S(=O)(=O)N3CCCCC3)c2)cn1	inconclusive: 50.4%
Cc1cc(C(=O)Nc2ccc(Cl)cc2)on1	inconclusive: 37.6%
O=c1[nH]nc(-c2ccc(F)cc2)cc1-c1ccccc1	inconclusive: 31.9%
O=C(Nc1ccc(Cl)cc1)C1CCCC1	inconclusive: 31.1%
CCOc1ccccc1C(=O)Nc1cccc(-c2ccc(N3CCOCC3)nn2)c1	inconclusive: 60.8%
Cc1ccc(/C=N/NC(=O)c2ccncc2)s1	inconclusive: 36.4%
CC(C)Cc1ccc(S(=O)(=O)Nc2cccnc2)cc1	inactive: 6.87%
Cc1ccc(NC(=O)CNC(c2ccccc2)c2ccccc2)c(F)c1	inconclusive: 47.6%
CCOc1ccccc1CNC(=O)C1Cc2cc(S(=O)(=O)N3CCCCC3)ccc2N1C(C)=O (stereo unspecified)	inconclusive: 40.7%
O=[N+]([O-])c1ccc2c(c1Nc1ccccc1)=NC1(CCCCC1)N=2	inconclusive: 39.6%
Cc1cc(C(=O)COc2ccc(C#N)cc2)c(C)n1-c1ccc2c(c1)OCO2	inconclusive: 44.5%
CCc1cccc(NC(=S)Nc2ccc(CN3CCOCC3)cc2)c1	inactive: 2.06%
COc1ccc(C(CNC(=O)c2cccc3cccnc23)N(C)C)cc1 (stereo unspecified)	inactive: -0.291%
O=C(O)c1sccc1Oc1ccc(NS(=O)(=O)c2cccc(F)c2)cc1	inactive: 3.59%
Cc1cccc(NC(=O)Nc2ccncc2)c1	inconclusive: 64.3%
CC(C)CNC(=S)N(CCN(C)C)Cc1cc2cc3c(cc2[nH]c1=O)OCO3	inconclusive: 44.8%
c1ccc(CN2CCC(Nc3nc(-c4cccnc4)nc4ccccc34)CC2)cc1	inconclusive: 31.4%

Look-ups from the list:
Entry of `O=C(O)c1sccc1Oc1ccc(NS(=O)(=O)c2cccc(F)c2)cc1` under activation: inactive: 3.59%
Entry of `Cc1cc(C(=O)COc2ccc(C#N)cc2)c(C)n1-c1ccc2c(c1)OCO2` under activation: inconclusive: 44.5%
Entry of `O=c1[nH]nc(-c2ccc(F)cc2)cc1-c1ccccc1` under activation: inconclusive: 31.9%
Entry of `CCc1cccc(NC(=S)Nc2ccc(CN3CCOCC3)cc2)c1` under activation: inactive: 2.06%

Further compounds.

Compound	activation
COc1ccc(-c2ncn(CCC#N)c2[N+](=O)[O-])cc1	inactive: 0.844%
Cc1ccccc1/C=C/C(=O)c1ccc([N+](=O)[O-])o1	inconclusive: 54.2%
Cc1ccc(C(=O)CCC(=O)OCC(=O)Nc2nnc(-c3ccccc3)o2)cc1	inactive: -4.33%
O=C(Nc1cccc(-n2cnnn2)c1)c1cc(Cl)nc(Cl)c1	inconclusive: 46%
O=C(OCC(=O)N1CCc2ccccc21)c1c2c(nc3ccccc13)CCCCC2	inconclusive: 39.2%
CCn1c2ccccc2c2cc(NC(=O)COC(=O)c3cccc(S(=O)(=O)NC)c3)ccc21	inactive: -3.01%
CC(=O)Nc1ccc(SCCN2CC[C@@H](C(C)(C)C)CCC2=O)cc1	inconclusive: 56.8%
CC(=O)c1cccc(NC(=S)NC2CCCCC2)c1	inconclusive: 64.3%
COc1cccc(/C=N/NC(=O)c2ccc(-n3cnnn3)cc2)c1	inconclusive: 33.8%
CC(C)c1ccc(NC(=O)C2CC3CCC2C3)cc1 (stereo unspecified)	inconclusive: 78.4%
Cc1onc(-c2c(Cl)cccc2Cl)c1C(=O)N1CCOCC1	inactive: 0.542%
Cc1occc1C(=O)N1CCCC(Nc2ccc(C(C)C)cc2)C1 (stereo unspecified)	inconclusive: 66%
Cc1onc(-c2ccccc2Cl)c1C(=O)c1ccccc1	inconclusive: 32%
COc1cc(/C=C/C(=O)Nc2nnc(CC(C)(C)C)s2)cc(OC)c1OC	inactive: -3.58%
Cc1cccc(NC(=O)c2ccc(OCc3c(C)noc3C)cc2)c1	inconclusive: 43.4%
O=C(Nc1ccc(F)cc1)c1nsc(Cl)c1Cl	inconclusive: 47.6%
CSc1ccccc1NC(=O)CN(C)Cc1ccc(Br)cc1	inconclusive: 33.3%
COc1ccc(CC(=O)NCc2csc(-c3cccs3)n2)cc1OC	inconclusive: 68.4%
Cc1ncc(CO)c(/C=N/NC(=O)c2ccoc2C)c1O	inactive: -1.19%

Compound	activation
O=C(Nc1ccc2c(c1)Cc1ccccc1-2)c1ccncc1	active: 81.2%
Fc1ccc(-c2cc(C(F)(F)F)nc(-n3cc(Cl)cn3)n2)cc1	inconclusive: 34.8%
Cc1ccccc1NC1=C(Cl)C(=O)N(C2CCCCC2)C1=O	inconclusive: 48.4%
CCCOC(=O)NC(CC)COC(=O)Nc1cc(C)ccc1C (stereo unspecified)	inconclusive: 30.5%
O=C(NCCCN1CCOCC1)c1ccc2c(c1)N(Cc1ccc(F)cc1)CCS2	inconclusive: 45.5%
Cc1cccc(N2C(N)=C(C#N)C(C#N)(C#N)C2c2ccccc2)c1 (stereo unspecified)	inactive: 3.4%
C[C@H]1O[C@H](O[C@H]2[C@H](O[C@@H]3CC[C@@]4(C)C(CC[C@]5(C)C4CC=C4[C@@H]6CC(C)(C)CC[C@]6(C(=O)O[C@@H]6O[C@H](CO)[C@@H](O)[C@H](O)[C@H]6O)CC[C@]45C)C3(C)C)O[C@H](C(=O)O)[C@@H](O)[C@@H]2O)[C@@H](O)[C@@H](O)[C@@H]1O (stereo partly specified)	inactive: -3.49%
CCCc1cc(=O)oc2cc(OCC(=O)N3CCN(C(=O)C4COc5ccccc5O4)CC3)ccc12 (stereo unspecified)	inactive: 2.85%
CC(C)C(=O)N1CCN(c2nc(-c3ccccc3)c3c(c2C#N)CC(C)(C)OC3)CC1	inconclusive: 62.5%
Cc1cc(CNC(=S)Nc2cccc(Cl)c2Cl)nn1C	inconclusive: 72.3%
CCOc1ccc(S(=O)(=O)N(C)CCO)cc1-c1nc2c(C(C)(C)C)nn(C)c2c(=O)[nH]1	inconclusive: 60.8%
CCC(C)c1ccc(S(=O)(=O)N2CCN(CC(O)CN3CCOCC3)CC2)cc1 (stereo unspecified)	inactive: 2.06%
Cc1ccccc1CS(=O)(=O)CCC(=O)NCCCN1CCN(c2ccccc2F)CC1	inactive: 2.95%
C=CCNC(=S)N1CCN(C2CCCCC2)CC1	inactive: 1.85%
O=C(N/N=C/c1c(O)ccc2ccccc12)c1[nH]ncc1Br	inactive: 15.3%
Cc1cccc(C)c1OCC(O)CN1CCN(c2ccccn2)CC1 (stereo unspecified)	inactive: -0.456%
CC(=O)Nc1ccc(-c2csc(NC(=O)CCCc3cccs3)n2)cc1	inactive: 10.6%
CC(NC(=O)COC(=O)CCc1nc2ccccc2c(=O)[nH]1)c1ccccc1 (stereo unspecified)	inactive: -5.85%
